Measured values: patent publication US20050119301A1, “Treatment of restenosis” (priority 2001, published 2005)
Some entries share one result that the patent states for a list of compounds.

Tested on: LDL
Experiment: LDL antioxidation test (CuCl2-initiated LDL oxidation, lag time)
Type: biochemical, human
Details: 10 mM
Method: The LDL antioxidation test measures the ability of a compound to directly scavenge free radicals or to chelate transition metals. Thus in this series of experiments, the isoflavones and their derivatives were tested for their ability to act as free radical scavengers.
Fresh whole blood was obtained by venipuncture from healthy human volunteers under 25 years of age and supplemented immediately with EDTA (91 mg/ml) and BHT (4.4 mg/ml). LDL was prepared by step-wise ultracentrifugation within a density gradient of 1.02-1.05 g/cm^3. EDTA and BHT were present throughout all the steps of the isolation. The EDTA/BHT containing stock solution (15-30 mg LDL/ml) was stored in the dark in a nitrogen atmosphere until use, but never longer than two weeks.
Before oxidation experiments, the LDL stock solution was dialyzed in the 100-fold volume of 0.01 M phosphate buffer pH 7.4, 0.16 M NaCl, 0.1 mg/ml chloroamphenicol, which was made oxygen-free by vacuum degassing following by purging with nitrogen. The buffer was changed four times. This EDTA- and BHT-free LDL stock solution was used for all oxidation studies. The stock solution was stored not longer than 24 hr at 4° C. […]

Oc1ccc(C2=Cc3ccc(O)cc3OC2)cc1 [Cpd. 12]
increase of the lag time: over 600%
